According to patent publication US20120022071A1, “Treatment of Comorbid Premature Ejaculation and Erectile Dysfunction” (priority 2007, published 2012):
Where a name gives a salt, the structure may show the parent alone. At least one structure is not confirmed: it was looked up by name or label, or the drawing left a doubt.

Columns and labels:
premature ejaculation = assay: Case report: treatment of premature ejaculation in a person with comorbid premature ejaculation and erectile dysfunction; type: in vivo, human; details: sildenafil citrate 50 mg administered before intercourse
erectile dysfunction = assay: Case report: treatment of erectile dysfunction in a person with comorbid premature ejaculation and erectile dysfunction; type: in vivo, human; details: sildenafil citrate 50 mg administered before intercourse

CCCc1nn(C)c2c(=O)[nH]c(-c3cc(S(=O)(=O)N4CCN(C)CC4)ccc3OCC)nc12 [Sildenafil citrate, sildenafil citrate]
effect on severe premature ejaculation (premature ejaculation): did not relieve | effect on erectile dysfunction (erectile dysfunction): somewhat improved
